The source gives many values for each of these; only a part stands here.
Test system: HEK293T nuclear lysates
Experiment: SILAC‐based pull‐down proteomics H4K5me1/H4K5 (probes 6/5)
Format: binding, human

probe 6: H4K5me peptide probe with photo‐arginine R(dz) and K(biotin) (SGRGKGGKGLGKGGK; photo-arginine R(dz) at 3; monomethyl-lysine at 5; K(biotin) at 15)
B6 log2 (H4K5me/H4K5) (protein F8WJN3 CPSF6, run B6): 0.3045 | C6 log (H4K5me/H4K5) (protein F8WJN3 CPSF6, run C6): 0.1297 | B6 log2 (H4K5me/H4K5) (protein FAM98B isoform 2 (Q52LJ0-2), SILAC run B6): -0.3868 | C6 log (H4K5me/H4K5) (protein FAM98B isoform 2 (Q52LJ0-2), SILAC run C6): -0.2048 | B6 log2 (H4K5me/H4K5) (protein FANCD2 isoform 2 (Q9BXW9-2), SILAC run B6): -0.6376 | C6 log (H4K5me/H4K5) (protein FANCD2 isoform 2 (Q9BXW9-2), SILAC run C6): 0.0887 | B6 log2 (H4K5me/H4K5) (protein FEN1 (P39748), SILAC run B6): -0.2907 | C6 log (H4K5me/H4K5) (protein FEN1 (P39748), SILAC run C6): -0.1919 | B6 log2 (H4K5me/H4K5) (protein FHL1 (Q5JXI8), run B6): -0.004407 | C6 log (H4K5me/H4K5) (protein FHL1 (Q5JXI8), run C6): 0.2442 | B6 log2 (H4K5me/H4K5) (protein FLNA (A0A087WWY3), run B6): 0.05691 | C6 log (H4K5me/H4K5) (protein FLNA (A0A087WWY3), run C6): 0.01778 | B6 log2 (H4K5me/H4K5) (protein FOXK1 (P85037), run B6): 0.01978 | C6 log (H4K5me/H4K5) (protein FOXK1 (P85037), run C6): 0.003876 | B6 log2 (H4K5me/H4K5) (protein FTSJD2 (Q8N1G2), run B6): 0.001052 | C6 log (H4K5me/H4K5) (protein FTSJD2 (Q8N1G2), run C6): 0.02532 | B6 log2 (H4K5me/H4K5) (protein FUBP1 (Q96AE4), run B6): 0.04743 | C6 log (H4K5me/H4K5) (protein FUBP1 (Q96AE4), run C6): -0.04434 | B6 log2 (H4K5me/H4K5) (protein G3XAG1 ZNF512, run B6): 0.6036 | C6 log (H4K5me/H4K5) (protein G3XAG1 ZNF512, run C6): 0.6036 | B6 log2 (H4K5me/H4K5) (protein G5E9W3 CPSF3, run B6): 0.2855 | C6 log (H4K5me/H4K5) (protein G5E9W3 CPSF3, run C6): -0.07168 | B6 log2 (H4K5me/H4K5) (protein GABPA (Q06546), run B6): -0.01399 | C6 log (H4K5me/H4K5) (protein GABPA (Q06546), run C6): 0.008695 | B6 log2 (H4K5me/H4K5) (protein GDI2 (P50395), SILAC run B6): -0.385 | C6 log (H4K5me/H4K5) (protein GDI2 (P50395), SILAC run C6): -0.1229 | B6 log2 (H4K5me/H4K5) (protein GNB2L1 (P63244), SILAC run B6): -0.4063 | C6 log (H4K5me/H4K5) (protein GNB2L1 (P63244), SILAC run C6): 0.07008 | B6 log2 (H4K5me/H4K5) (protein GNL3 (Q9BVP2), run B6): 0.01618 | C6 log (H4K5me/H4K5) (protein GNL3 (Q9BVP2), run C6): -0.01298 | B6 log2 (H4K5me/H4K5) (protein GPALPP1 (A0A0A0MRI1), run B6): -0.02262 | C6 log (H4K5me/H4K5) (protein GPALPP1 (A0A0A0MRI1), run C6): -0.497 | B6 log2 (H4K5me/H4K5) (protein GRWD1 (Q9BQ67), run B6): -0.01529 | C6 log (H4K5me/H4K5) (protein GRWD1 (Q9BQ67), run C6): -0.1902 | B6 log2 (H4K5me/H4K5) (protein GSPT1 (H3BR35), SILAC run B6): -0.2123 | C6 log (H4K5me/H4K5) (protein GSPT1 (H3BR35), SILAC run C6): -0.4483 | B6 log2 (H4K5me/H4K5) (protein GTF2E1 (C9IYL4), SILAC run B6): -0.2624 | C6 log (H4K5me/H4K5) (protein GTF2E1 (C9IYL4), SILAC run C6): 0.001099 | B6 log2 (H4K5me/H4K5) (protein GTF2F1 (P35269), run B6): -0.02058 | C6 log (H4K5me/H4K5) (protein GTF2F1 (P35269), run C6): -0.09847 | B6 log2 (H4K5me/H4K5) (protein GTF2I (P78347), run B6): 0.06118 | C6 log (H4K5me/H4K5) (protein GTF2I (P78347), run C6): -0.04696 | B6 log2 (H4K5me/H4K5) (protein GTF3C1 (Q12789), SILAC run B6): -0.3507 | C6 log (H4K5me/H4K5) (protein GTF3C1 (Q12789), SILAC run C6): -0.1541 | B6 log2 (H4K5me/H4K5) (protein GTF3C2 (Q8WUA4), SILAC run B6): -0.2095 | C6 log (H4K5me/H4K5) (protein GTF3C2 (Q8WUA4), SILAC run C6): -0.1414 | B6 log2 (H4K5me/H4K5) (protein GTF3C3 (Q9Y5Q9), run B6): 0.08665 | C6 log (H4K5me/H4K5) (protein GTF3C3 (Q9Y5Q9), run C6): 0.0487 | B6 log2 (H4K5me/H4K5) (protein GTF3C4 (Q9UKN8), run B6): -0.001594 | C6 log (H4K5me/H4K5) (protein GTF3C4 (Q9UKN8), run C6): -0.132 | B6 log2 (H4K5me/H4K5) (protein H7C3I1 ST13, run B6): 0.4721 | C6 log (H4K5me/H4K5) (protein H7C3I1 ST13, run C6): 0.08786 | B6 log2 (H4K5me/H4K5) (protein HDAC1 (Q13547), run B6): 0.06689 | C6 log (H4K5me/H4K5) (protein HDAC1 (Q13547), run C6): 0.0445 | B6 log2 (H4K5me/H4K5) (protein HDAC2 (Q92769), run B6): 0.06048 | C6 log (H4K5me/H4K5) (protein HDAC2 (Q92769), run C6): 0.05567 | B6 log2 (H4K5me/H4K5) (protein HDGFRP2 (Q7Z4V5), SILAC run B6): -0.2157 | C6 log (H4K5me/H4K5) (protein HDGFRP2 (Q7Z4V5), SILAC run C6): -0.2495 | B6 log2 (H4K5me/H4K5) (protein HELLS (A0A087WSW7), SILAC run B6): -0.6994 | C6 log (H4K5me/H4K5) (protein HELLS (A0A087WSW7), SILAC run C6): -0.007075 | B6 log2 (H4K5me/H4K5) (protein HIRIP3 (Q9BW71), run B6): 0.09617 | C6 log (H4K5me/H4K5) (protein HIRIP3 (Q9BW71), run C6): -0.02201 | B6 log2 (H4K5me/H4K5) (protein HIST1H2AH (Q96KK5), SILAC run B6): -0.2375 | C6 log (H4K5me/H4K5) (protein HIST1H2AH (Q96KK5), SILAC run C6): -0.05107 | B6 log2 (H4K5me/H4K5) (protein HMGA1 (P17096), SILAC run B6): -0.2491 | C6 log (H4K5me/H4K5) (protein HMGA1 (P17096), SILAC run C6): -0.4117 | B6 log2 (H4K5me/H4K5) (protein HMGB3 (E9PES6), SILAC run B6): -0.4603 | C6 log (H4K5me/H4K5) (protein HMGB3 (E9PES6), SILAC run C6): -0.3766 | B6 log2 (H4K5me/H4K5) (protein HMGN5 (P82970), run B6): -0.02293 | C6 log (H4K5me/H4K5) (protein HMGN5 (P82970), run C6): 0.008719 | B6 log2 (H4K5me/H4K5) (protein HN1L (H3BU16), run B6): 0.01543 | C6 log (H4K5me/H4K5) (protein HN1L (H3BU16), run C6): -0.0616 | B6 log2 (H4K5me/H4K5) (protein HNRNPA2B1 (P22626), run B6): 0.09679 | C6 log (H4K5me/H4K5) (protein HNRNPA2B1 (P22626), run C6): 0.03367 | B6 log2 (H4K5me/H4K5) (protein HNRNPA3 (P51991), run B6): -0.014 | C6 log (H4K5me/H4K5) (protein HNRNPA3 (P51991), run C6): 0.0433 | B6 log2 (H4K5me/H4K5) (protein HNRNPD (Q14103), run B6): 0.1113 | C6 log (H4K5me/H4K5) (protein HNRNPD (Q14103), run C6): 0.0238 | B6 log2 (H4K5me/H4K5) (protein HNRNPDL (A0A087WUK2), run B6): 0.07155 | C6 log (H4K5me/H4K5) (protein HNRNPDL (A0A087WUK2), run C6): 0.1568 | B6 log2 (H4K5me/H4K5) (protein HNRNPK (P61978), run B6): 0.1161 | C6 log (H4K5me/H4K5) (protein HNRNPK (P61978), run C6): 0.04993 | B6 log2 (H4K5me/H4K5) (protein HNRNPLL (C9IYN3), run B6): 0.01069 | C6 log (H4K5me/H4K5) (protein HNRNPLL (C9IYN3), run C6): -0.03826 | B6 log2 (H4K5me/H4K5) (protein HNRNPM (P52272), run B6): -0.005939 | C6 log (H4K5me/H4K5) (protein HNRNPM (P52272), run C6): -0.1401 | B6 log2 (H4K5me/H4K5) (protein HNRNPR (O43390), run B6): 0.04397 | C6 log (H4K5me/H4K5) (protein HNRNPR (O43390), run C6): 0.3897 | B6 log2 (H4K5me/H4K5) (protein HNRNPUL2 (Q1KMD3), run B6): 0.06176 | C6 log (H4K5me/H4K5) (protein HNRNPUL2 (Q1KMD3), run C6): 0.2537 | B6 log2 (H4K5me/H4K5) (protein HPRT1 (P00492), SILAC run B6): -0.3403 | C6 log (H4K5me/H4K5) (protein HPRT1 (P00492), SILAC run C6): -0.132 | B6 log2 (H4K5me/H4K5) (protein HSP90AB1 (P08238), run B6): 0.06955 | C6 log (H4K5me/H4K5) (protein HSP90AB1 (P08238), run C6): -0.04407 | B6 log2 (H4K5me/H4K5) (protein HSP90B1 (P14625), run B6): 0.007536 | C6 log (H4K5me/H4K5) (protein HSP90B1 (P14625), run C6): -0.07511 | B6 log2 (H4K5me/H4K5) (protein HSPA1A (P08107), run B6): 0.05336 | C6 log (H4K5me/H4K5) (protein HSPA1A (P08107), run C6): 0 | B6 log2 (H4K5me/H4K5) (protein HSPA4 (P34932), run B6): 0.01519 | C6 log (H4K5me/H4K5) (protein HSPA4 (P34932), run C6): -0.08476 | B6 log2 (H4K5me/H4K5) (protein HSPA5 (P11021), SILAC run B6): -0.2997 | C6 log (H4K5me/H4K5) (protein HSPA5 (P11021), SILAC run C6): 0.1483 | B6 log2 (H4K5me/H4K5) (protein HSPH1 (Q92598), SILAC run B6): -0.2073 | C6 log (H4K5me/H4K5) (protein HSPH1 (Q92598), SILAC run C6): -0.4709 | B6 log2 (H4K5me/H4K5) (protein I3L0H8 DDX19A, run B6): 0.6127 | C6 log (H4K5me/H4K5) (protein I3L0H8 DDX19A, run C6): 0.6127 | B6 log2 (H4K5me/H4K5) (protein ILKAP (Q9H0C8), run B6): 0.1086 | C6 log (H4K5me/H4K5) (protein ILKAP (Q9H0C8), run C6): 0.1449 | B6 log2 (H4K5me/H4K5) (protein IPO7 (O95373), run B6): -0.006564 | C6 log (H4K5me/H4K5) (protein IPO7 (O95373), run C6): -0.4333 | B6 log2 (H4K5me/H4K5) (protein IPO8 (O15397), run B6): 0.06366 | C6 log (H4K5me/H4K5) (protein IPO8 (O15397), run C6): -0.05257 | B6 log2 (H4K5me/H4K5) (protein IWS1 (Q96ST2), run B6): 0.02663
